Results reported in paper PMC11005171, “Molecular cloning, characterisation and molecular modelling of two novel T-synthases from mollusc origin” (Glycobiology, 2024).

Assays:
Pc_T-synthase = tested on: T1, Pc_T-synthase; experiment: HPLC galactosyl transfer assay, inhibition; type: biochemical, Pomacea canaliculata; conditions: 5 nmol inhibitor in 20 uL standard assay: MES pH 6.5, 20 mM MnCl2, 200 uM UDP-Gal, 1 mM pNP-α-GalNAc, 37 °C; Sf9 lysate
T1 construct: gene T-synthase; full-length 373 aa (CDS 1,122 bp), C-terminal His tag, codon-optimised, expressed in Sf9 cells (baculovirus), clear cell lysate

Cg2_T-synthase = tested on: T2, Cg2_T-synthase; experiment: HPLC galactosyl transfer assay, inhibition; type: biochemical, Magallana gigas; conditions: 5 nmol inhibitor in 20 uL standard assay: MES pH 6.5, 20 mM MnCl2, 200 uM UDP-Gal, 1 mM pNP-α-GalNAc, 37 °C; Sf9 lysate
T2 construct: gene T-synthase; full-length 421 aa (CDS 1,266 bp), C-terminal His tag, codon-optimised, expressed in Sf9 cells (baculovirus), clear cell lysate

| SMILES | % inhibition with 5 nmols (Pc_T-synthase) [%] | % inhibition with 5 nmols (Cg2_T-synthase) [%] |
| --- | --- | --- |
| Nc1nc2c(ncn2[C@@H]2O[C@H](COP(=O)(O)OP(=O)(O)O)[C@@H](O)[C@H]2O)c(=O)[nH]1 [GDP] | 25 |  |
| O=c1ccn([C@@H]2O[C@H](COP(=O)(O)OP(=O)(O)O)[C@@H](O)[C@H]2O)c(=O)[nH]1 [UDP] |  | 31 |
| O=c1ccn([C@@H]2O[C@H](COP(=O)(O)O)[C@@H](O)[C@H]2O)c(=O)[nH]1 [UMP] | 30 | 23 |
| O=c1ccn([C@@H]2O[C@H](COP(=O)(O)OP(=O)(O)OP(=O)(O)O)[C@@H](O)[C@H]2O)c(=O)[nH]1 [UTP] | 75 | 16 |
| OC[C@H]1OC(O)[C@H](O)[C@@H](O)[C@H]1O (stereo partly shown) [galactose] | 13 |  |
